Patent US20120065170A1, “Antimicrobial Cyclocarbonyl Heterocyclic Compounds For Treatment Of Bacterial Infections” (priority 2010, published 2012)
Some of these results come from one statement about several compounds together.

Experiments:
Conditions in all cases: versus Reference Compound 15, Table 2 data
[1] = system: linezolid-resistant E. faecium; experiment: MIC against linezolid-resistant E. faecium strains; format: cell-based, Enterococcus faecium
Description: (§1) Compounds of this invention can have useful activity against a variety of pathogenic microorganisms. The in vitro activity of compounds of this invention can be assessed by standard testing procedures such as the determination of minimum inhibitory concentration (MIC) by agar dilution as described in “Approved Standard. Methods for Dilution Antimicrobial Susceptibility Tests for Bacteria That Grow Aerobically”, 3rd. ed., published 1993 by the National Committee for Clinical Laboratory Standards, Villanova, Pa., USA. Minimum inhibitory concentration (MIC) refers to the lowest concentration of drug (μg/mL) that inhibits visible growth of the organism. Lower MIC values indicate a higher antibacterial activity. Typically, compounds of the present invention have useful potency against Gram-positive or Gram-negative pathogens with MIC values of ≦8 μg/mL. To measure useful antibacterial activity against multiple bacterial isolates or strains, MIC90 (or minimal inhibitory concentration of the drug that inhibits visible growth of 90% of the microbes in each bacterial specie panel) is determined. Lower MIC number indicates an elevated degree of useful antibacterial activity, while higher MIC number indicates a reduced antibacterial activity. An agent with too high MIC against a bacterial pathogen can not be used for the treatment of infections caused by such microbial species. […]

[2] = system: linezolid-resistant E. faecalis; experiment: MIC against linezolid-resistant E. faecalis strains; format: cell-based, Enterococus faecalis
Description: as §1

[3] = system: linezolid-resistant S. aureus; experiment: MIC against linezolid-resistant S. aureus strains; format: cell-based, Staphylococcus aureus
Description: as §1

O=C1O[C@@H](CO)CN1c1ccc(-c2ccc(N3CCNC3=O)nc2)c(F)c1 [Example 7]
2-4 fold: MIC fold lower than Reference Compound 15, linezolid-resistant E. faecium [1] | MIC fold lower than Reference Compound 15, linezolid-resistant E. faecalis [2] | MIC fold lower than Reference Compound 15, linezolid-resistant S. aureus [3]

O=C1O[C@@H](CO)CN1c1ccc(-c2ccc(N3CCCC3=O)nc2)c(F)c1 [Example 10]
2-4 fold: MIC fold lower than Reference Compound 15, linezolid-resistant E. faecium [1] | MIC fold lower than Reference Compound 15, linezolid-resistant E. faecalis [2] | MIC fold lower than Reference Compound 15, linezolid-resistant S. aureus [3]
